From patent US20230219986A1, “NOVEL AMINOPYRIMIDINE EGFR INHIBITOR” (QILU PHARMACEUTICAL CO., LTD., priority 2020, published 2023)

Amino acid sequences for entries named in this document (tags omitted). A change or cut given only in a name is not applied to a line headed by its entry. Chains listed by the source or under a name are the forms on record and can include a tag or linker. Residues count along the entry.
UniProt P00533, 25-1210 limits assumed: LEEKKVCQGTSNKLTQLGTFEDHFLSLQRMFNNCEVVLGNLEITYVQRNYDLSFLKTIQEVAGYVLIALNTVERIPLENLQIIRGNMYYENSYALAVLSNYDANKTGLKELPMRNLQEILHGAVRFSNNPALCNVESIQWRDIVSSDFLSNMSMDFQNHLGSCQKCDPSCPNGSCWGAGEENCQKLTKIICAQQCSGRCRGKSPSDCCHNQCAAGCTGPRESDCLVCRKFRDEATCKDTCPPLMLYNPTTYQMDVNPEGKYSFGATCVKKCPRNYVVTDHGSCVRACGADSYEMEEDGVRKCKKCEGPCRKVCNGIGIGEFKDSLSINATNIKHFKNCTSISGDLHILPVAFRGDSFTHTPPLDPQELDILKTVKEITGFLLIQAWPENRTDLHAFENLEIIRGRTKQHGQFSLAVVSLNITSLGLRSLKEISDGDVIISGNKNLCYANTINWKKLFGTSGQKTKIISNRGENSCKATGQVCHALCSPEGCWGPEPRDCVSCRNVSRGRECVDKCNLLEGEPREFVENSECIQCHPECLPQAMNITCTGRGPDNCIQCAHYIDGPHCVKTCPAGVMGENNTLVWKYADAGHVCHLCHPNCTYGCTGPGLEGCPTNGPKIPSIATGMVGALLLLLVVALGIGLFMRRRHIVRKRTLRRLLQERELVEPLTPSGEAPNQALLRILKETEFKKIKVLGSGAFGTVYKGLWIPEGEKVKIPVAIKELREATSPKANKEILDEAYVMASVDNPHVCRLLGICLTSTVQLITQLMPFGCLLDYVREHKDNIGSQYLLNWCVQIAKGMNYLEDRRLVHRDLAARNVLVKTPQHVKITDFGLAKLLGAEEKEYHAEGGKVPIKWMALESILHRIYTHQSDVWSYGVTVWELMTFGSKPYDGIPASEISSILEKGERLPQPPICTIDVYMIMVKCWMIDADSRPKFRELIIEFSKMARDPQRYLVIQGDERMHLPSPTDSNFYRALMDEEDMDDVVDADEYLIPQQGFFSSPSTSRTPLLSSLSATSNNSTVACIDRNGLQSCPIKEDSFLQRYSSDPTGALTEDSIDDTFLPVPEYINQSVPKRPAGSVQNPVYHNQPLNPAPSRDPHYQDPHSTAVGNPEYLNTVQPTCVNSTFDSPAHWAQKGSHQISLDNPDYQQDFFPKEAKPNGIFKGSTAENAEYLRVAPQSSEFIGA
UniProt P00533, whole entry T790M/C797S/L858R: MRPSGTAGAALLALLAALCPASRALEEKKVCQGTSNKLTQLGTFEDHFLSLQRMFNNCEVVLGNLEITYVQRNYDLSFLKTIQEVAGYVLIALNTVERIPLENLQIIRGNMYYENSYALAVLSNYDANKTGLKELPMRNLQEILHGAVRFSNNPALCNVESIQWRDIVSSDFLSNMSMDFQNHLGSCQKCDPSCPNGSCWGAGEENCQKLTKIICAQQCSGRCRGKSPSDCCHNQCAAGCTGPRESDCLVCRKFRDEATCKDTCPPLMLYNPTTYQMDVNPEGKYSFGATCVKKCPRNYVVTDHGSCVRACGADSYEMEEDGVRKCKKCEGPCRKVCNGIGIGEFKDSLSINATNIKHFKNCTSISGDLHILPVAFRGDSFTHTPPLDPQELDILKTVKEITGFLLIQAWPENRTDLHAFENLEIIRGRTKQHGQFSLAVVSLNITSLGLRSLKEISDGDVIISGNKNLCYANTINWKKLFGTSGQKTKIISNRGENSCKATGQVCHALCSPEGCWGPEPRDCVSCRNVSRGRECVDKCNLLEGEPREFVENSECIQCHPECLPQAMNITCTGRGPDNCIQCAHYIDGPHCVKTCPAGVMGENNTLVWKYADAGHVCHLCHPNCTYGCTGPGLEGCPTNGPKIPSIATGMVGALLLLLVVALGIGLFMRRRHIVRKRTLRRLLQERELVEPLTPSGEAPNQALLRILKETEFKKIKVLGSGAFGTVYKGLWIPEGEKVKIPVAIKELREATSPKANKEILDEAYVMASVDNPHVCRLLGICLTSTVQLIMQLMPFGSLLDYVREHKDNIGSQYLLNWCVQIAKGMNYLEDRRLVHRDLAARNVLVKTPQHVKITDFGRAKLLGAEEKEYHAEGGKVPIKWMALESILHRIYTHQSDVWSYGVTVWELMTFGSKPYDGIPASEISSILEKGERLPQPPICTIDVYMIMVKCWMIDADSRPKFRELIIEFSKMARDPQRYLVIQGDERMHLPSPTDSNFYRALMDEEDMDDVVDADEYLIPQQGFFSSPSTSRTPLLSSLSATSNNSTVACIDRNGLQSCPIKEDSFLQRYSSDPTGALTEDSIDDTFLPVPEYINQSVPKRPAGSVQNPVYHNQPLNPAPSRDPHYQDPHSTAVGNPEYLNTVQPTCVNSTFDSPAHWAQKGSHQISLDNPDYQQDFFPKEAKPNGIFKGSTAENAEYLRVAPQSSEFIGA
UniProt P00533, 25-1210 T790M/C797S/L858R limits assumed: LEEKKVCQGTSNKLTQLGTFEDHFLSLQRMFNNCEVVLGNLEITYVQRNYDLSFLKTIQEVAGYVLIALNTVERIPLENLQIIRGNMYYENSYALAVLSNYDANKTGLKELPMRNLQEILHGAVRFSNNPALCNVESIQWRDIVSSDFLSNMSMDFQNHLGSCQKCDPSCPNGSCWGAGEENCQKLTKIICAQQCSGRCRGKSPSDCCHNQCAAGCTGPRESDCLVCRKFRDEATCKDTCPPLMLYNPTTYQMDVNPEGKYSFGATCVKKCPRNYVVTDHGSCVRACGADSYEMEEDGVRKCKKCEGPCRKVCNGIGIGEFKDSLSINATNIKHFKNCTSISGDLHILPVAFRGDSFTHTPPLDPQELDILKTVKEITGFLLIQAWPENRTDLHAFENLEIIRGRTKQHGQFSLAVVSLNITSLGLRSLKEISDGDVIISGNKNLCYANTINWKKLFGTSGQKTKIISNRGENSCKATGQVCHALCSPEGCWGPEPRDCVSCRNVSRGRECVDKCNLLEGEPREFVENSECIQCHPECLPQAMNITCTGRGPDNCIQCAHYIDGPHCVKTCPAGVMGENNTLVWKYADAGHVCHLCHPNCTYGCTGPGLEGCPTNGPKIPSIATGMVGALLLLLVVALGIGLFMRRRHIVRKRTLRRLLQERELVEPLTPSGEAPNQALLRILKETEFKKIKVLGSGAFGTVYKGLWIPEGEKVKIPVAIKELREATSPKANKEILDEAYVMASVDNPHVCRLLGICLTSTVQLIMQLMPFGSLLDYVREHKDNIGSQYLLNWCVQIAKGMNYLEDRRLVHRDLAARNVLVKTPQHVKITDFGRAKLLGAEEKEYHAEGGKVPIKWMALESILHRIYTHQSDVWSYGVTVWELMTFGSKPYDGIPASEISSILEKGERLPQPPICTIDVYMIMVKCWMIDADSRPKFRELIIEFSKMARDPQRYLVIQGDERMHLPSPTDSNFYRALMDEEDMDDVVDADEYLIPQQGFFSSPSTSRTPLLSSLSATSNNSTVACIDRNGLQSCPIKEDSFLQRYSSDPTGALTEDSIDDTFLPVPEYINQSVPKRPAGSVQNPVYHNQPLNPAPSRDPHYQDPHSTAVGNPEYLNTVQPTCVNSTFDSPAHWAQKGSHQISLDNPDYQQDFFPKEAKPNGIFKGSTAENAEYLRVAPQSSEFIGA
UniProt P00533, with tags, fused parts or gaps C797S/DEL746-750/T790M: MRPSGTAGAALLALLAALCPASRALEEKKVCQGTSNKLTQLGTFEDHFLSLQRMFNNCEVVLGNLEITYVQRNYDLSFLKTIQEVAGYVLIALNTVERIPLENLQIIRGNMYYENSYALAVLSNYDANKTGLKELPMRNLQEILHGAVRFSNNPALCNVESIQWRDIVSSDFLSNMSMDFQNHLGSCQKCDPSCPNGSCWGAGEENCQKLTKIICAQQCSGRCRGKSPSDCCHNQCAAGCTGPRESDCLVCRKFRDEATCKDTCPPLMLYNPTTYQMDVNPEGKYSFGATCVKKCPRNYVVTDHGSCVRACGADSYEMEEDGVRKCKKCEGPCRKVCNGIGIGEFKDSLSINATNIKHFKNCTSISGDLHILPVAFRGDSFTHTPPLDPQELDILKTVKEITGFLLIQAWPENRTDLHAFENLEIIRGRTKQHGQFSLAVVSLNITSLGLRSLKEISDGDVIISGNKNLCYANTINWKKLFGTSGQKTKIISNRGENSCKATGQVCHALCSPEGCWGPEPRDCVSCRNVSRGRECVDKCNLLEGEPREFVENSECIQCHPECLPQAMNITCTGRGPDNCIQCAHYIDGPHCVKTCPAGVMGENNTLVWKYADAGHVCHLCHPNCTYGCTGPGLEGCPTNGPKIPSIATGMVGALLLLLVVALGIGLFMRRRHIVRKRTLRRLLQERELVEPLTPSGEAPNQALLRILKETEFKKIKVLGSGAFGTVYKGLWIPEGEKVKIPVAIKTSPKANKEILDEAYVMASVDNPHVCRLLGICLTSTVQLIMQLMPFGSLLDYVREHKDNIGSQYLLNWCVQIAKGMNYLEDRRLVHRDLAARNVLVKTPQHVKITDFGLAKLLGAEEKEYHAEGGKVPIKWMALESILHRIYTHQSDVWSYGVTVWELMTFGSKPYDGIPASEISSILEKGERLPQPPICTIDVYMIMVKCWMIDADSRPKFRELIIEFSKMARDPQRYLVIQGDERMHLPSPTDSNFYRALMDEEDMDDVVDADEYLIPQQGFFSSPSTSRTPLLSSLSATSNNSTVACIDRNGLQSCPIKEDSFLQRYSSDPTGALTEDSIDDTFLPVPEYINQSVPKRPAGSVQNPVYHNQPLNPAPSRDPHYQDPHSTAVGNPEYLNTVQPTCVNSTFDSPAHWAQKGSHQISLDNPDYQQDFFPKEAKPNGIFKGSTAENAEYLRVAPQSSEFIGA

Tests used:
[1] = molecular target: Ba/F3 L858R/T790M/C797S EGFR triple mutant cell line (Homo sapiens, UniProt P00533, T790M/C797S/L858R, cells depend on it); test: Cell proliferation inhibition experiment (CellTiter-Glo), Ba/F3 L858R/T790M/C797S; conditions: read-out: Ba/F3 (L858R/T790M/C797S) IC50, 72 hours, Cell Titer-Glo
[2] = system: EGFR wild-type cell line A431; test: Cell proliferation inhibition experiment (CellTiter-Glo), A431; conditions: read-out: A431 EGFR WT IC50; A431 cells, 72 hours, Cell Titer-Glo
[3] = molecular target: Ba/F3 De119/T790M/C797S EGFR triple mutant cell line (Homo sapiens, UniProt P00533, T790M/C797S, cells depend on it, form not given); test: Cell proliferation inhibition experiment (CellTiter-Glo), Ba/F3 De119/T790M/C797S; conditions: read-out: Ba/F3 (Del19/T790M/C797S) IC50, 72 hours, Cell Titer-Glo
wild-type EGFR = wild-type EGFR (Homo sapiens, UniProt P00533); test: Enzymology experiment in vitro (HTRF/FRET kinase activity), wild-type EGFR; assay type: biochemical; conditions: read-out: EGFR (WT) IC50, HTRF KinEASE-TK
[4] = molecular target: L858R/T790M/C797S triple mutant EGFR (Homo sapiens, UniProt P00533, C797S/L858R/T790M); test: Enzymology experiment in vitro (HTRF/FRET kinase activity), L858R/T790M/C797S triple mutant EGFR; assay type: biochemical; conditions: read-out: EGFR (L858R/T790M/C797S) IC50, HTRF KinEASE-TK

**Q.** How did the GI50 [1] turn out when `COc1cc(N2CCC(N3CCOCC3)CC2)c(-c2cnn(C)c2)cc1Nc1ncc(Br)c(Nc2ccc3nccnc3c2P(C)(C)=O)n1` was run?
**A.** 18.4 nM

**Q.** What about the IC50 [2] of the same compound?
**A.** 154 nM

**Q.** And the GI50 [3]?
**A.** 7.08 nM

**Q.** What about the IC50 (wild-type EGFR) of the same compound?
**A.** 2.57 nM

**Q.** What about the IC50 [4] of the same compound?
**A.** 0.2 nM

The match of structure and compound is tentative.
